According to PMC4404006:
No constants are given. Whether binding was seen depends on the method and setting. Binding seen in cells or lysates may run through a third protein. Some results given as binding are weak or reduced against the parent protein; the word gives no strength.

Sequences of proteins named here, by UniProt entry; tags and fusion partners are left off.
UniProt O44126: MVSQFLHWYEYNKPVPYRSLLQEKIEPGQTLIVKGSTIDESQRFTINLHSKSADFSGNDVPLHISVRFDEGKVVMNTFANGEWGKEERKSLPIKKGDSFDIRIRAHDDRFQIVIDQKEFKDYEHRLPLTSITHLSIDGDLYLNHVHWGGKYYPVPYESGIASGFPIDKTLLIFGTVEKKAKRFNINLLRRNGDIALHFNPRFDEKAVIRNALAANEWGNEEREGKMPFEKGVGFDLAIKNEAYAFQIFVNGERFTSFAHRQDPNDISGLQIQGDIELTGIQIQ
UniProt A0A452G813: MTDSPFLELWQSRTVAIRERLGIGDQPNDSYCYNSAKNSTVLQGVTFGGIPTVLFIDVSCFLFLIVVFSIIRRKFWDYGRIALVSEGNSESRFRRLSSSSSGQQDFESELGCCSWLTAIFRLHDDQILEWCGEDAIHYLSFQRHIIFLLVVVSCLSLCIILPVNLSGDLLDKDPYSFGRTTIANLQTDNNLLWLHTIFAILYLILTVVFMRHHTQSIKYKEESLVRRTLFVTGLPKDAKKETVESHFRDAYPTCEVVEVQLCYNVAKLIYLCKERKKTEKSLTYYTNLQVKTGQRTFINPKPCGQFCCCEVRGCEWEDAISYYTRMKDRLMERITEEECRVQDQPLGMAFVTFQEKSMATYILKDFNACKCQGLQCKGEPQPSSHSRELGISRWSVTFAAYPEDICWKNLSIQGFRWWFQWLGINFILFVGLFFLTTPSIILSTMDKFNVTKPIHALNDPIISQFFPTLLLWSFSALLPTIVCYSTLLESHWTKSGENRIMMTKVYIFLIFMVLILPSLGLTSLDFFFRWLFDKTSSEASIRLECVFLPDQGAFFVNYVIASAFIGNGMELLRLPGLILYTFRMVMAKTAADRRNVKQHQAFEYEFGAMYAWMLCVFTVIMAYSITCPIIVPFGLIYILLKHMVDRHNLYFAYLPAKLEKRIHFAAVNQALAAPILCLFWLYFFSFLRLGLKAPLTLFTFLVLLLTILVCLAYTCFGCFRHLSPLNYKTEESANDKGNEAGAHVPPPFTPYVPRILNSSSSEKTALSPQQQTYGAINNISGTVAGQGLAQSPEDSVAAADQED

Tests used:
[1] = biological target: Transmembrane protein 63A (TMEM63A), endogenous in goat PBMC (goat (endogenous in goat PBMC)); experiment: co-IP; reverse: goat PBMC incubated with rHco-gal-m for 12 h and lysed; 1 mg lysate precipitated with rat anti-TMEM63A-NO IgG overnight at 4°C; blot with rat anti-Hco-Gal IgG; only the binder purified
[2] = biological target: Recombinant Haemonchus contortus galectin Hco-gal-m (rHco-gal-m) (Haemonchus contortus) (UniProt O44126); experiment: co-IP; forward: goat PBMC incubated with rHco-gal-m for 12 h and lysed (1% Triton X-100, 1% NP-40, 150 mM NaCl, pH 7.4); 1 mg lysate precipitated with rat anti-Hco-Gal IgG overnight at 4°C; blot with rat anti-TMEM63A-NO IgG; only the target purified

| Substance | binding [1] | binding [2] |
| --- | --- | --- |
| Recombinant Haemonchus contortus galectin Hco-gal-m (rHco-gal-m) (from UniProt O44126 1-283) | binds | – |
| Transmembrane protein 63A (TMEM63A), endogenous in goat PBMC (from UniProt A0A452G813 1-803) | – | binds |
